Source: patent US5882644A, “Monoclonal antibodies specific for the platelet derived growth factor β receptor and methods of use thereof” (Protein Design Labs, Inc., priority 1996, dated 1999)
Positions count from the first letter of the chain named.

System: PDGF-R β deletion fusion proteins
Experiment: ELISA epitope mapping with PDGF-R β deletion fusion proteins
Format: binding, human
Conditions: concluded from deletion protein ELISA
Source text: To localize the binding sites of the M4TS antibodies on the PDGF-R, a series of PDGF-R β deletion mutants, each consisting of one or more adjacent domains of the extracellular portion of the receptor, was constructed by standard methods including PCR. The deletion constructs were each cloned into an expression plasmid (FIG. 13A) where they were fused to the constant region of the human lambda-1 immunoglobulin light chain, to facilitate detection in ELISA. The constructs were as follows (see FIG. 13B):
These PDGF-R β deletion fusion proteins were transiently expressed, by transfecting 10 μg of the respective expression plasmids into approximately 10^7 S194 mouse myeloma cells (ATCC TIB 19) using the DEAE-dextran method in accordance with the method described by Queen et al. (1984) Mol. Cell. Biol. 4:1042. After the transfected cells had died (4-5 days) and been removed by centrifugation, the culture supernatants containing the PDGF-R β deletion proteins were used in ELISA assays, 100 μl/well. First, the relative levels of the various PDGF-R β deletion proteins were measured in an ELISA where the plate was coated with goat anti-human lambda antibody (Tago) and the proteins detected with HRP-conjugated goat anti-human lambda antibody. […] To determine the ability of the antibodies to bind to each deletion protein, an ELISA was performed in which goat anti-human lambda antibody was used to coat the plate, followed by the cell supernatant and then 0.1 μg of the appropriate antibody, and then bound antibody detected with HRP-conjugated goat-anti-mouse Ig or goat-anti-human Ig antibody as appropriate (Tago). As a positive control, purified soluble PDGF-R β (Example 1) was coated directly on certain wells of the plate (denoted D1-5 in FIG. 14).

B1: muM4TS.11: murine monoclonal antibody to PDGF-R β, variable regions SEQ ID NOS:10 and 12; epitope in fourth extracellular domain (antibody, V domains shown)
VL: METETLLLWVLLLWVPGSTGDIVLTQSPPSLAVSLGQRATISCRASESVDSYGNSFMHWYQQKPGQPPKLLIYRASNLESGIPARFSGGGSRTDFTLTINPVEADDVATYYCQQSNEDPPTFGGGTKLEIK
VH: MERHWIFLFLFSVTAGVHSQVQLQQSGAEVAKPGASVKMSCKASGYTFTNCWMHWVKQRPGQGLEWIGYINPTTGYSEYNQNFKDKATLTADKSSNTAYIQLSSLTSEDSAVYYCTSNYGHYDWFANWGQGTLVT
**Q.** How did the “location of binding epitope on PDGF-R β” value turn out when B1 was run?
**A.** The value was “in the fourth domain”.

B2: HuM4TS.11: humanized muM4TS.11, human III-2R framework, gamma4 constant region; SEQ ID NOS:14 and 16 (antibody, V domains shown)
VL: METDTLLLWVLLLWVPGSTGDIQMTQSPSSLSASVGDRVTITCRASESVDSYGNSFMHWYQQKPGKAPKLLIYRASNLESGIPSRFSGSGSRTDFTLTISSLQPEDVATYYCQQSNEDPPTFGQGTKVEIK
VH: MGWSWIFLFLLSGTAGVHSQVQLVQSGAEVKKPGASVKVSCKASGYTFTNCWMHWVRQAPGQGLEWIGYINPTTGYSEYNQNFKDKATITADKSTSTAYMELSSLRSEDTAVYYCTSNYGHYDWFGNWGQGTLVT
**Q.** With B2 as the molecule, how does the “location of binding epitope on PDGF-R β” value read?
**A.** The value was “in the fourth domain”.

B3: muM4TS.22: murine monoclonal antibody to PDGF-R β, variable regions SEQ ID NOS:2 and 4; epitope in third extracellular domain (antibody, V domains shown)
VL: MRVLAELLGLLLFCFLGVRCDIQMNQSPSSLSASLGDTITITCHASQNINVWLSWYQRKPGNIPKLLIYKASNLHTGVPSRFSGSGSGTGFTLTISSLQPEDIATYYCQQGQSFPFTFGSGTKLEIK
VH: MAVLALLLCLVTFPSCALSQVQLKESGPGLVAPSQSLSITCTVSGFSLTNYAINWVRQPPGQGLEWLGIIWTGGGTSYNSALKSRLSISKDNSKSQVFLKMNSLQTDDTARYYCARTGTRGYFFDYWGQGTTLTVSS
**Q.** B3 was tested. Which “location of binding epitope on PDGF-R β” value did it give?
**A.** Its value is “in the third domain”.

B4: HuM4TS.22: humanized muM4TS.22, human IC4 framework, gamma4 constant region; SEQ ID NOS:6 and 8 (antibody, V domains shown)
VL: B3 VL with N25T, L35V, T38R, I39V, R58Q, N62K, I63A, S120G, L124V
VH: MAVLALLLCLVTFPSCALSQVQLQESGPGLVKPSETLSLTCTVSGFSLTNYAINWVRQPPGKGLEWLGIIWTGGGTSYNSALKSRLTISKDTSKNQVSLKLSSVTAADTAVYYCARTGTRGYFFDYWGQGTLVTVSS
**Q.** For B4, which “location of binding epitope on PDGF-R β” value is on record?
**A.** The value was “in the third domain”.
